Source: PubChem BioAssay AID445 (National Center for Advancing Translational Sciences (NCATS), 2006)
The other results are listed elsewhere or left out. The main result of the screen is listed elsewhere. These columns were measured beside it and carry no call. Most of these compounds were active or inconclusive in the main read-out, so they are no random draw. The note in brackets gives the kind of curve behind each potency; many fits are weak.

Experiment: IkB Signaling
Conditions: ABC-DLBCL IkBa-CBG/CBR dual luciferase ratio (green luciferase fused to IkBa over red control in OCI-Ly3 lymphoma cells), 4 h; measured here: control luc red channel unless noted
In short: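 In this assay, an IκBα–CBG68 fusion accumulates when IKK-driven degradation is blocked; native CBR normalizes for cell number. OCI-Ly3 cells were treated 4 h with compound and doxycycline, then green and red light read after Chroma-Glo addition.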

**Q.** With `CCOc1ccccc1CNC(=O)c1ccc2nc(N3CCC(C)CC3)sc2c1` as the compound, how does the AC50 read?
**A.** Its AC50 is 15.8 µM [falling, partial curve].

**Q.** With `C=CCSc1nnc(NC(=O)CSc2nc(CCC)cc(=O)[nH]2)s1` as the compound, how does the AC50 read?
**A.** The AC50 was 12.6 µM [falling, partial curve].

**Q.** Which AC50 does the source give for `Cc1ccc(-n2ncc3c(NCCc4ccc(S(N)(=O)=O)cc4)ncnc32)cc1` here?
**A.** Its AC50 is 7.94 µM [falling, partial curve].

**Q.** With `O=C(Nc1ccc(NC(=O)C2CC2)cn1)c1ccccc1Cl` as the compound, how does the AC50 read?
**A.** The AC50 was 15.8 µM [falling, partial curve].

**Q.** With `CC1=C(c2ccc(C)cc2)S(=O)(=O)NC1=NCc1ccccc1Cl` as the compound, how does the AC50 read?
**A.** The AC50 was 15.8 µM [falling, partial curve].

**Q.** Which AC50 does the source give for `CCN(C(=O)Cn1c(=O)oc2cc(S(=O)(=O)N3CCCCCC3)ccc21)c1cccc(C)c1` here?
**A.** The AC50 was 10 µM [falling, partial curve].

**Q.** With `O=C(CCS(=O)(=O)c1ccc(Br)s1)Nc1cc(C(F)(F)F)cc(C(F)(F)F)c1` as the compound, how does the AC50 read?
**A.** The AC50 was 39.8 µM [falling, single point].

**Q.** With `CCOC(=O)c1c(C)[nH]c(C(=O)NCc2ccccc2OC)c1C` as the compound, how does the AC50 read?
**A.** The AC50 was 12.6 µM [falling, partial curve].

**Q.** With `Cc1cccc(C)c1Nc1c(-c2ccccn2)nc2ccc(Cl)cn12` as the compound, how does the AC50 read?
**A.** The AC50 was 31.6 µM [falling, single point].

**Q.** With `COc1ccc(-c2nc(CSCC(=O)N3CCN(c4ccccc4F)CC3)c(C)o2)cc1` as the compound, how does the AC50 read?
**A.** Its AC50 is 20 µM [falling, single point].

**Q.** For `CC(=O)N1CCN(c2ccc(Nc3nc(C)nc4c3oc3ccccc34)cc2)CC1`, which AC50 is on record?
**A.** Its AC50 is 25.1 µM [falling, single point].

**Q.** With `COc1ccccc1-n1cnnc1SCC(=O)N1CCN(S(=O)(=O)c2ccccc2)CC1` as the compound, how does the AC50 read?
**A.** The AC50 was 0.0316 µM [falling, full curve].

**Q.** For `O=C(NCc1ccccc1)NC1COc2ccccc2C1` (stereo not given), which AC50 is on record?
**A.** Its AC50 is 0.0316 µM [rising, full curve].

**Q.** Which AC50 does the source give for `Cn1cc(S(=O)(=O)N2CCCCCC2)cc1C(=O)NCc1ccc(F)cc1` here?
**A.** The AC50 was 15.8 µM [falling, partial curve, poor fit].

**Q.** With `Cc1cc(-c2ccccc2)n2nc(-c3cccc(Br)c3)cc2n1` as the compound, how does the AC50 read?
**A.** Its AC50 is 3.98 µM [falling, full curve].

**Q.** For `CC1CCN(C(=O)CN2c3ccc(C(C)C)cc3-c3ccccc3S2(=O)=O)CC1`, which AC50 is on record?
**A.** Its AC50 is 20 µM [falling, partial curve, poor fit].

**Q.** Which AC50 does the source give for `Cc1ccc(-c2c(C(=O)NCc3ccc(F)cc3)oc(=O)c3ccccc23)cc1` here?
**A.** The AC50 was 31.6 µM [falling, single point].

**Q.** Which AC50 does the source give for `CC(=O)c1cccc(NC(=O)c2oc(=O)c3ccccc3c2-c2ccccc2)c1` here?
**A.** The AC50 was 7.94 µM [falling, single point].

**Q.** With `N#Cc1ccccc1Sc1ccccc1C(=O)OCc1nnc(-c2ccccc2)o1` as the compound, how does the AC50 read?
**A.** Its AC50 is 3.16 µM [falling, full curve, poor fit].

**Q.** Which AC50 does the source give for `COc1ccc(CCCc2nnc(SCC(=O)Nc3ccc(F)cc3)o2)cc1C` here?
**A.** The AC50 was 20 µM [falling, partial curve].

**Q.** For `CS(=O)(=O)N(CC(=O)NCCSCc1ccccc1)c1cc(C(F)(F)F)ccc1Cl`, which AC50 is on record?
**A.** The AC50 was 12.6 µM [falling, single point].

**Q.** For `O=C(Cn1cnc2onc(-c3ccc(F)cc3)c2c1=O)Nc1cccc(C(F)(F)F)c1`, which AC50 is on record?
**A.** The AC50 was 25.1 µM [falling, single point].

**Q.** With `CCOC(=O)c1nnn(CC(=O)Nc2cc(C)cc(C)c2)c1C(=O)OCC` as the compound, how does the AC50 read?
**A.** The AC50 was 25.1 µM [falling, partial curve].

**Q.** For `CCOC(=O)c1ccc(NC(=O)c2nc(SC(C)C)ncc2Cl)cc1`, which AC50 is on record?
**A.** The AC50 was 39.8 µM [falling, single point].

**Q.** With `C=CCn1c(SCC(O)Cn2c3ccccc3c3ccccc32)nnc1-c1ccco1` (stereo not given) as the compound, how does the AC50 read?
**A.** The AC50 was 20 µM [falling, partial curve].

**Q.** With `CCc1ccc(NC(=O)N2c3ccccc3Sc3ccccc32)cc1` as the compound, how does the AC50 read?
**A.** The AC50 was 20 µM [falling, partial curve, poor fit].

**Q.** Which AC50 does the source give for `CCN(Cc1ccccc1)S(=O)(=O)c1ccc2c(c1)CCCN2C(C)=O` here?
**A.** Its AC50 is 20 µM [falling, single point].

**Q.** With `CCC(c1nnnn1Cc1ccc2c(c1)OCO2)N1CCN(c2ccc(F)cc2)CC1` (stereo not given) as the compound, how does the AC50 read?
**A.** The AC50 was 31.6 µM [falling, single point].

**Q.** Which AC50 does the source give for `C#C[C@]1(O)CC[C@H]2[C@H]3CCC4=Cc5oncc5C[C@]4(C)[C@@H]3CC[C@]21C` here?
**A.** The AC50 was 12.6 µM [falling, partial curve].

**Q.** Which AC50 does the source give for `Cc1ccc(Cn2nnc3c(=O)[nH]c(C4CCN(S(=O)(=O)c5ccc(F)cc5)CC4)nc32)cc1` here?
**A.** Its AC50 is 7.94 µM [falling, full curve].

**Q.** With `O=C(NCCc1csc(-c2cccc(F)c2)n1)c1ccccc1C(F)(F)F` as the compound, how does the AC50 read?
**A.** The AC50 was 25.1 µM [falling, partial curve, poor fit].

**Q.** Which AC50 does the source give for `CCc1nn(-c2ccccc2)c2nc(-c3ccc(O)cc3)c3cc(OC)c(OC)cc3c12` here?
**A.** Its AC50 is 7.94 µM [falling, partial curve].

**Q.** With `Cc1cccc(-c2nc(CN3CCCC(C(=O)NCc4ccc(Cl)cc4)C3)c(C)o2)c1` (stereo not given) as the compound, how does the AC50 read?
**A.** Its AC50 is 20 µM [falling, partial curve].

**Q.** Which AC50 does the source give for `O=C(NCc1ccc(F)cc1)C1CCCCN1S(=O)(=O)c1ccc(F)cc1` (stereo not given) here?
**A.** The AC50 was 39.8 µM [falling, partial curve].

**Q.** Which AC50 does the source give for `Cc1cc(C)cc(NC(=O)c2oc3ccc4c(c3c2C)C(=O)CC(C)(C)O4)c1` here?
**A.** The AC50 was 2 µM [falling, partial curve].

**Q.** With `N=c1n(CCN2CCCCC2)c2ccccc2n1CC(O)COc1ccccc1` (stereo not given) as the compound, how does the AC50 read?
**A.** Its AC50 is 20 µM [falling, partial curve].

**Q.** For `Cc1ccc(C)c(N2CCN(C(=O)c3ccc(Nc4nc5ccccc5n5nnnc45)cc3)CC2)c1`, which AC50 is on record?
**A.** The AC50 was 5.01 µM [falling, full curve].

**Q.** Which AC50 does the source give for `CCOC(=O)c1cc(C)n(CC2CCC(C(=O)Nc3ccc(C)cc3)CC2)c1C` (stereo not given) here?
**A.** Its AC50 is 15.8 µM [falling, partial curve, poor fit].

**Q.** Which AC50 does the source give for `Cc1cccc(C)c1NC(=O)CN(Cc1ccc(Br)cc1)S(=O)(=O)c1ccccc1` here?
**A.** The AC50 was 15.8 µM [falling, partial curve].

**Q.** For `CCOC(=O)c1ccc(NS(=O)(=O)c2ccc3c(c2)OCCO3)cc1`, which AC50 is on record?
**A.** The AC50 was 31.6 µM [falling, single point].
